Experimental data reported in article PMC13378934.
These are yes or no findings as the source states them, for the method shown. In cells and extracts the contact can be indirect. Some binding calls cover weakened binding; strength is not graded here. For part of these data: Sequences can lack the tags named with a protein.

T1: Flag-CARD19 (caspase activation and recruitment domain 19) (UniProt Q9D1I2)
T1 sequence: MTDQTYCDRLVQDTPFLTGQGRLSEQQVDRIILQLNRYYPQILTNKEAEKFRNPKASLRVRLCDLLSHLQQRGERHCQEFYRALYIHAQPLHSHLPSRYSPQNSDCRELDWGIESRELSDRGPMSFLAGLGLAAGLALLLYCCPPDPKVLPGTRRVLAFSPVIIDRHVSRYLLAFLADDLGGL

T2: mitochondrial inner membrane protein 19 (MIC19) (mouse (endogenous in BV2)) (UniProt Q9CRB9)
T2 sequence: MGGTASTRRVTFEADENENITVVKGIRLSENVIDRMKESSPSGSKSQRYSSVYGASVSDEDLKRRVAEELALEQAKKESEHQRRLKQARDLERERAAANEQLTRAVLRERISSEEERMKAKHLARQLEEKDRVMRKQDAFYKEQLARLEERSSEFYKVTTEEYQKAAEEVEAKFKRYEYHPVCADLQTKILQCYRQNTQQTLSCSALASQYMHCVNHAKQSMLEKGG


How the values were obtained:
[1] = biological target: T1, Flag-CARD19 (caspase activation and recruitment domain 19); test: co-IP; 500 ug protein of BV2 cells incubated with 1 ug Flag antibody (or rabbit IgG) at 4°C overnight, protein A/G agarose beads 2 h at 4°C, five washes with PBS, western blotting
[2] = biological target: T2, mitochondrial inner membrane protein 19 (MIC19) (mouse (endogenous in BV2)); test: co-IP; 500 ug protein of BV2 cells incubated with 1 ug MIC19 antibody (or rabbit IgG) at 4°C overnight, protein A/G agarose beads 2 h at 4°C, five washes with PBS, western blotting; cells with or without OGD/R, with Vector or Flag-CARD19, with LV-NC or LV-shCARD19

Row | Binder | binding [1] | binding [2]
1 | sorting and assembly machinery component 50 (SAMM50) (protein, UniProt Q8BGH2 1-469) MGTVHARSLEPLPSSGTDFGALGEEAEFVEVEPEAKQEILENKDVVVQHVHFDGLGRTKDDIIICEIGEVFKAKNLIEVMRRSHEAREKLLRLGIFRQVDVLIDTCHGEDALPNGLDVTFEVTELRRLTGSYNTMVGNNEGSMVLGLKLPNLLGRAEKVTFQFSYGTKETSYGLSFFKPQPGNFERNFSVNLYKVTGQFPWSSLRETDRGVSAEYSFPLWKTSHTVKWEGVWRELGCLSRTASFAVRKESGHSLKSSLSHAMVIDSRNSSILPRRGALFKVNQELAGYTGGDVSFIKEDFELQLNKPLALDSVFSTSLWGGMLVPIGDKPSSIADRFYLGGPTSVRGFSMHSIGPQSEGDYLGGEAYWAGGLHLYTPLPFRPGQGGFGELFRTHFFLNAGNLCNLNYGEGPKAHIRKLAECIRWSYGAGVVLRLGNIARLELNYCIPMGVQGGDRICDGVQFGAGIRFL | binds | binds
2 | mitochondrial inner membrane protein 19 (MIC19) (protein, UniProt Q9CRB9 1-227) MGGTASTRRVTFEADENENITVVKGIRLSENVIDRMKESSPSGSKSQRYSSVYGASVSDEDLKRRVAEELALEQAKKESEHQRRLKQARDLERERAAANEQLTRAVLRERISSEEERMKAKHLARQLEEKDRVMRKQDAFYKEQLARLEERSSEFYKVTTEEYQKAAEEVEAKFKRYEYHPVCADLQTKILQCYRQNTQQTLSCSALASQYMHCVNHAKQSMLEKGG | binds | –
